Reference: patent US20260159546A1, “PHARMACEUTICAL COMPOSITION FOR TREATING SEPSIS INCLUDING DUAL ALARMIN-RECEPTOR-SPECIFIC TARGETING PEPTIDE” (Industry-University Cooperation Foundation Hanyang …, priority 2024, published 2026)

Protein sequences, listed by entry. Tags and fused reporters are not part of them. Lines headed by an entry give the natural chain unless they say otherwise; changes in a name come on top. Residues count along the entry.
UniProt Q62151, residues 23-402: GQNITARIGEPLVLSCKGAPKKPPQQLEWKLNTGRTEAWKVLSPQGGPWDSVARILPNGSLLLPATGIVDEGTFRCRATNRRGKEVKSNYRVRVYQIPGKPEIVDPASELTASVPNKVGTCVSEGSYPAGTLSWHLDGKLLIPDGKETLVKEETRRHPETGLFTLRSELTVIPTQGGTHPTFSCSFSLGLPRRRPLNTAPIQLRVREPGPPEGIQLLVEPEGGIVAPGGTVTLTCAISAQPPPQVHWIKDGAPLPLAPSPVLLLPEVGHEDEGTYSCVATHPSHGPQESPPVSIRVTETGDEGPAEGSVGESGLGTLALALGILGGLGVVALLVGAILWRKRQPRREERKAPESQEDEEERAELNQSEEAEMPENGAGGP
UniProt P63158: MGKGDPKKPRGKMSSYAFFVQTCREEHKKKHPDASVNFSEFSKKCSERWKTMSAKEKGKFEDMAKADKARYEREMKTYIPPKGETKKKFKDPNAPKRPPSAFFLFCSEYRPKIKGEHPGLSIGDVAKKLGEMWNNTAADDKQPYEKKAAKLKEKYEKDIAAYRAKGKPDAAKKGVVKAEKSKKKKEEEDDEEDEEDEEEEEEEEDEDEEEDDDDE

Target: RAGE of murine bone marrow-derived macrophages (BMDMs) (mouse) (UniProt Q62151)
Experiment: BMDMs incubated with 10 µg/mL rFlag-HMGB1 for 3 h; IP with anti-RAGE, immunoblot (FIG. 1C right)

How did the binding turn out when “recombinant Flag-HMGB1 (from UniProt P63158) (ligand)” was run?
Its binding is “binds”.

No constants are given. Whether binding was seen depends on the method and setting. Binding calls can cover weak binding; strength is not graded here.
